The list shows a part of the results.
Tests used:
Test in all cases: log2 fold change, soluble protein after heating vs DMSO (PISA); higher = thermal stabilisation; K562 cells, 10 uM, 30 min; active = over 0.2 and 3.5 SD of the protein, either way, in both replicates (recomputed)
[1] = compound: CS(=O)(=O)c1ccc(-c2cnc(N)c(C(=O)Nc3ccccc3)n2)cc1
Method in brief: (§1)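 K562 cells (2×10^6 cells/mL) were treated with 10 μM compound for 30 min, and aliquots were heated for 3 min over 48°C-58°C. Pooled aliquots were extracted in PBS with 0.5% NP-40 at 4°C, and the supernatant after 21,000xg for 90 min was measured by TMTpro 16plex LC-MS/MS with channel sums equalised. Reported thermal stability, relative to control samples and from duplicates, is a log2 fold change.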

Amino acid sequences for entries named in this document (tags omitted). A change or cut given only in a name is not applied to a line headed by its entry.
UniProt P14316: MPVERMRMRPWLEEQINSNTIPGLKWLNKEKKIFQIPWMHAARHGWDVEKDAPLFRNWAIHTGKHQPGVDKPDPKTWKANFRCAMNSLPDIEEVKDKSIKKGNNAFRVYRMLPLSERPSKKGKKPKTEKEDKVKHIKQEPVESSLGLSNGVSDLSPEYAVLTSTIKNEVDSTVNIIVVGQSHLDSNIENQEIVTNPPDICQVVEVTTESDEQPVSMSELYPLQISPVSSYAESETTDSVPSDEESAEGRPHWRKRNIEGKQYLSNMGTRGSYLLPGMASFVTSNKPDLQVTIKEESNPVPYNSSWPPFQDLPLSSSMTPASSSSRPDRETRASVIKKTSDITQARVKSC
UniProt Q9NQX7: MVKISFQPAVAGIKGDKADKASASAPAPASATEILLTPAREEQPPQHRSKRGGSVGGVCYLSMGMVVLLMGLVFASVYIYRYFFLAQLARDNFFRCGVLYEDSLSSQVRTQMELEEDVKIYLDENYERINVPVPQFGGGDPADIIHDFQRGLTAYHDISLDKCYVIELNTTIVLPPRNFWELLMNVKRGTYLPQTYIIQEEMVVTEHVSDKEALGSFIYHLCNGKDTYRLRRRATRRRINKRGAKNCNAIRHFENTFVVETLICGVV
UniProt Q01628, whole entry, looked up: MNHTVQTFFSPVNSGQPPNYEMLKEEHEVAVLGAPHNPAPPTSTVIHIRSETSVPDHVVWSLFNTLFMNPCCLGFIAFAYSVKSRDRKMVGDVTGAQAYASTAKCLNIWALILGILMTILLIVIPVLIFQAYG
UniProt Q12906, whole entry, looked up: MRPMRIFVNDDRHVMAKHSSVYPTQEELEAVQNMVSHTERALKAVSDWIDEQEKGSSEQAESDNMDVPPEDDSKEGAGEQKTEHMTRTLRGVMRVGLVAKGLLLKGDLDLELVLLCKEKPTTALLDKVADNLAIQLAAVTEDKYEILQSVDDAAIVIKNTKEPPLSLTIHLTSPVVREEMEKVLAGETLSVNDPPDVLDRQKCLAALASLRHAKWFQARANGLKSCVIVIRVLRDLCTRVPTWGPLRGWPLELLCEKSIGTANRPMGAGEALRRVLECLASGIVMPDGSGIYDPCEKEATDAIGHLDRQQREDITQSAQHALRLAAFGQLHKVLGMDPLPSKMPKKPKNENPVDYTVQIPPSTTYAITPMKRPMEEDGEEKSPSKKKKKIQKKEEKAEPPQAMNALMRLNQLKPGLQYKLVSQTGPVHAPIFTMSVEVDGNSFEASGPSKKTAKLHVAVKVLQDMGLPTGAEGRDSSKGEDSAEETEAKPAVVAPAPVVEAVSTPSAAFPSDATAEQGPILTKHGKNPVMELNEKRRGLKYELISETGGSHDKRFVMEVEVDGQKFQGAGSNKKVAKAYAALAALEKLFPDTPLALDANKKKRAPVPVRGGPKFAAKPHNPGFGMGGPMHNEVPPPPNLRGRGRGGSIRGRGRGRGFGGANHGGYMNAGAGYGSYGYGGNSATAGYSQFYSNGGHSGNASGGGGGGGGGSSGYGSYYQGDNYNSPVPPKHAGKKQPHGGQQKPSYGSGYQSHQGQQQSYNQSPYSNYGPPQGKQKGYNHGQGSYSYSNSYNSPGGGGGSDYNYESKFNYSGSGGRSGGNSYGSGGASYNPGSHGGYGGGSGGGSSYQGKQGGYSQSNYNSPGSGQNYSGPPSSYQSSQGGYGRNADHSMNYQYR
UniProt P23677, whole entry, looked up: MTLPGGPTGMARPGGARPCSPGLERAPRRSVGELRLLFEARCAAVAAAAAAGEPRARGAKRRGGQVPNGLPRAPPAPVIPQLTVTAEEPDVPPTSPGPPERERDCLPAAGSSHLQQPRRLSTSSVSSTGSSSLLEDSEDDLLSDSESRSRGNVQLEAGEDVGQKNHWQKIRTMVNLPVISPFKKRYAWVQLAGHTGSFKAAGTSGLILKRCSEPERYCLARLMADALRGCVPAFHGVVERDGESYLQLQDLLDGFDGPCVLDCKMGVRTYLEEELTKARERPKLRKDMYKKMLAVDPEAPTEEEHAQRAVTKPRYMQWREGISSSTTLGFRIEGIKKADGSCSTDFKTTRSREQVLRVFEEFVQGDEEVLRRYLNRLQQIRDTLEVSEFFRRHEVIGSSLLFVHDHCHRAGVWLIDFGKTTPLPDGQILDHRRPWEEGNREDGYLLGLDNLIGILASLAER
UniProt Q8IU81: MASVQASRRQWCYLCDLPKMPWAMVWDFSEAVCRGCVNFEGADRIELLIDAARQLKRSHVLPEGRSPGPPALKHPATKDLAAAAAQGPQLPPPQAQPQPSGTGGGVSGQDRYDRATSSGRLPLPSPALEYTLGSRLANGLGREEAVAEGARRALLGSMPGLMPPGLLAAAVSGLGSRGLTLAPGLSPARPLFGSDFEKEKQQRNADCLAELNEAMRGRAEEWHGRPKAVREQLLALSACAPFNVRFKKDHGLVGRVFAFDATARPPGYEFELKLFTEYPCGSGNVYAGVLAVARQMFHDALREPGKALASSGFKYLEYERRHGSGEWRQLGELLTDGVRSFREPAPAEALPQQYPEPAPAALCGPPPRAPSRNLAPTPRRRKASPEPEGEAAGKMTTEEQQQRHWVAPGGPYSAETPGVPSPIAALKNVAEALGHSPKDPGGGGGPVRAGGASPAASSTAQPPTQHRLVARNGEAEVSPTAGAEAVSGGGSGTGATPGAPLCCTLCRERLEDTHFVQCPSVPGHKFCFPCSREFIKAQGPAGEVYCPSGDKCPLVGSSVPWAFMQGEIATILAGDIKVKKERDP
UniProt Q96F46, whole entry, looked up: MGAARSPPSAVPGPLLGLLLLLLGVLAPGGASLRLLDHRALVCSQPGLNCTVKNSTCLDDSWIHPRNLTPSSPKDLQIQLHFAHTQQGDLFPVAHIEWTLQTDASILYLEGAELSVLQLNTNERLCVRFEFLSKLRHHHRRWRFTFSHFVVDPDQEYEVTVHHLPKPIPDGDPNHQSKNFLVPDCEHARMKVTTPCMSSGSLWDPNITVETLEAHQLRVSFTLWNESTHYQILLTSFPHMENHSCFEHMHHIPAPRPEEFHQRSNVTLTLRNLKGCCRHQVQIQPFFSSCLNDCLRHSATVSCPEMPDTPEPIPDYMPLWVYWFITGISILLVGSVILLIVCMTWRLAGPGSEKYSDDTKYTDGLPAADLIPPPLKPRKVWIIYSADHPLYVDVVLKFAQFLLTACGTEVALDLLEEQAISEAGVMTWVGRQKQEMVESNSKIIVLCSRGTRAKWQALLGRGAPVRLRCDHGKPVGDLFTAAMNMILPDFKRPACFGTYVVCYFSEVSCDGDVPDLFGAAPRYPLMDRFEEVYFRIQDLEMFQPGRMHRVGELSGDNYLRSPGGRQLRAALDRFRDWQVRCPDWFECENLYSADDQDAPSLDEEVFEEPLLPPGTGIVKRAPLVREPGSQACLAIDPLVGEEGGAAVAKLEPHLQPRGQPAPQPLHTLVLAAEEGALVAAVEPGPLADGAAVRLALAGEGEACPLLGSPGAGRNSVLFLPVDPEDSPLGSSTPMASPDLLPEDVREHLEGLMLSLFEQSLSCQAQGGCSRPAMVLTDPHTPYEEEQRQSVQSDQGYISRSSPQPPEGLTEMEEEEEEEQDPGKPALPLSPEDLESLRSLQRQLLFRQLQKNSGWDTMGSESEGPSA
UniProt P01876, whole entry, looked up: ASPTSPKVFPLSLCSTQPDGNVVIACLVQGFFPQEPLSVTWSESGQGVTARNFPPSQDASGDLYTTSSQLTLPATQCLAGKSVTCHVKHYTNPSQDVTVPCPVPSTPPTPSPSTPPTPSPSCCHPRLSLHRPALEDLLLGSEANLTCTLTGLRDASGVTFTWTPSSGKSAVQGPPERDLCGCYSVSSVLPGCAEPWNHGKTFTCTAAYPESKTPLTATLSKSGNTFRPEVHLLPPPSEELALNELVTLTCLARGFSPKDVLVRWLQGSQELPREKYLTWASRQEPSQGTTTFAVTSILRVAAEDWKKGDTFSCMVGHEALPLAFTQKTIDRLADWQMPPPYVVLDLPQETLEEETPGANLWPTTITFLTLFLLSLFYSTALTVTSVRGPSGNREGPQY
UniProt P24593, whole entry, looked up: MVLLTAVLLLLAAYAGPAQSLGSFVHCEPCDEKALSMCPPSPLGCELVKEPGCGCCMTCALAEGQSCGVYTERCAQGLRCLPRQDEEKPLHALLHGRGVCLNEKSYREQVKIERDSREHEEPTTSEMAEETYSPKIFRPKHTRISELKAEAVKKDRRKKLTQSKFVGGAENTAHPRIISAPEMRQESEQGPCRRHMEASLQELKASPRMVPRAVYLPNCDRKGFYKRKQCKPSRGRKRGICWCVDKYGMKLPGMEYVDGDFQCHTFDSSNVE
UniProt Q8IY31, whole entry, looked up: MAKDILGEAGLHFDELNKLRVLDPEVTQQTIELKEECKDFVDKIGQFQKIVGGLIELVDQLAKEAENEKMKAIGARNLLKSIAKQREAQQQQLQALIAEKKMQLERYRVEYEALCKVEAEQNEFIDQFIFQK
UniProt O14732: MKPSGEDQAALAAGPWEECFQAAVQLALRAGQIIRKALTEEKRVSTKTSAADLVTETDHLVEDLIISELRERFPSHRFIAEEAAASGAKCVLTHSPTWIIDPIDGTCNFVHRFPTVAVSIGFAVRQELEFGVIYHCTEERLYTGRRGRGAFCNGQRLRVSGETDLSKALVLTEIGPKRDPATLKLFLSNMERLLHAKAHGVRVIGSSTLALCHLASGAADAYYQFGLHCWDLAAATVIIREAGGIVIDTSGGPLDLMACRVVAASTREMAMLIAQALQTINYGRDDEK
UniProt Q92551: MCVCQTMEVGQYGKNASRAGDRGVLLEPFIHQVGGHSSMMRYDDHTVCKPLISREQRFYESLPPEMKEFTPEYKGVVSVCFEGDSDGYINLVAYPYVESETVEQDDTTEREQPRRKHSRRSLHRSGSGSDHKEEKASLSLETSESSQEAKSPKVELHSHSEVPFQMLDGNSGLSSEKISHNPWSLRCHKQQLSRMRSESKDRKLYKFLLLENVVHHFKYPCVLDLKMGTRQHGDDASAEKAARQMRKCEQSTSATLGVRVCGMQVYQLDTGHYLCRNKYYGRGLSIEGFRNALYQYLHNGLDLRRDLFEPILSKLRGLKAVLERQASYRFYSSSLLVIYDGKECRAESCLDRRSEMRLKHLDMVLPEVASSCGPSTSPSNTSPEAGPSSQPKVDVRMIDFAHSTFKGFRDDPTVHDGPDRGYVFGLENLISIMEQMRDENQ
UniProt Q9NRY2: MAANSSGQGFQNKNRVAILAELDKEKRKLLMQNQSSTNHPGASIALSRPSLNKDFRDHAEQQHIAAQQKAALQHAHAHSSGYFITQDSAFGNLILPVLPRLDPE
UniProt Q96G21: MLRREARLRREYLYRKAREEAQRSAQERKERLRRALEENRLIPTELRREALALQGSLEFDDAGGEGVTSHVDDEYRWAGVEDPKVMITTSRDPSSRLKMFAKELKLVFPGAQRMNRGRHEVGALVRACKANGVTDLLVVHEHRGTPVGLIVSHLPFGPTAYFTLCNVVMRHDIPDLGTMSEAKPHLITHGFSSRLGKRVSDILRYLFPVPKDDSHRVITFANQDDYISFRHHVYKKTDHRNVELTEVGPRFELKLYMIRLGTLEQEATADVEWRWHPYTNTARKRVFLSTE
UniProt Q9H6K1: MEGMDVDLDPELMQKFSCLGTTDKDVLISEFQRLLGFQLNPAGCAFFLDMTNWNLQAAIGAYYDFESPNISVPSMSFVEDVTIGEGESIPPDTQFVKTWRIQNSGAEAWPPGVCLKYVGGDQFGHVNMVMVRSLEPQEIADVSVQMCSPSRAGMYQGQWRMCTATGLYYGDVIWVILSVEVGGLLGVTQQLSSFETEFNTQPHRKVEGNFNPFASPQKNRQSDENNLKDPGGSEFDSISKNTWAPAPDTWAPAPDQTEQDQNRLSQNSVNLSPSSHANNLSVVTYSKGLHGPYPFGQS

crizotinib = compound: C[C@@H](Oc1cc(-c2cnn(C3CCNCC3)c2)cnc1N)c1c(Cl)ccc(F)c1Cl [crizotinib]
Method in brief: as §1

[2] = compound: C[C@H](C1=CC=C(C=C1)C(=O)NC2=C3C=CNC3=NC=C2)N
Method in brief: as §1

gandotinib = compound: Cc1cc(Nc2cc(CN3CCOCC3)c3nc(C)c(Cc4ccc(Cl)cc4F)n3n2)n[nH]1 [gandotinib]
Method in brief: as §1

tozasertib = compound: Cc1cc(Nc2cc(N3CCN(C)CC3)nc(Sc3ccc(NC(=O)C4CC4)cc3)n2)n[nH]1 [tozasertib]
Method in brief: as §1

doramapimod = compound: Cc1ccc(-n2nc(C(C)(C)C)cc2NC(=O)Nc2ccc(OCCN3CCOCC3)c3ccccc23)cc1 [doramapimod]
Method in brief: as §1

ispinesib = compound: Cc1ccc(C(=O)N(CCCN)[C@@H](c2nc3cc(Cl)ccc3c(=O)n2Cc2ccccc2)C(C)C)cc1 [ispinesib]
Method in brief: as §1

bafetinib = compound: Cc1ccc(NC(=O)c2ccc(CN3CC[C@H](N(C)C)C3)c(C(F)(F)F)c2)cc1Nc1nccc(-c2cncnc2)n1 [bafetinib]
Method in brief: as §1

[3] = compound: Cc1cccc(CC(=O)N2CCc3c2ccc(-c2cn(C)c4ncnc(N)c24)c3F)n1
Method in brief: as §1

nilotinib = compound: Cc1cn(-c2cc(NC(=O)c3ccc(C)c(Nc4nccc(-c5cccnc5)n4)c3)cc(C(F)(F)F)c2)cn1 [nilotinib]
Method in brief: as §1

[4] = compound: Cc1nc(Nc2n[nH]c3c2CN(C(=O)N[C@H](CN(C)C)c2ccccc2)C3(C)C)c2sccc2n1
Method in brief: as §1

[5] = compound: Cc1ncc(-c2ccnc(Nc3ccc(S(C)(=O)=O)cc3)n2)n1C(C)C
Method in brief: as §1

[6] = compound: Cn1cc(-c2ccc3c(c2)CCN3C(=O)Cc2cccc(C(F)(F)F)c2)c2c(N)ncnc21
Method in brief: as §1

[7] = compound: Cn1cc(-c2ccc3nnc(C(F)(F)c4ccc5ncccc5c4)n3n2)cn1
Method in brief: as §1

tipifarnib = compound: Cn1cncc1[C@@](N)(c1ccc(Cl)cc1)c1ccc2c(c1)c(-c1cccc(Cl)c1)cc(=O)n2C [tipifarnib]
Method in brief: as §1

mubritinib = compound: FC(F)(F)c1ccc(/C=C/c2nc(COc3ccc(CCCCn4ccnn4)cc3)co2)cc1 [mubritinib]
Method in brief: as §1

[8] = compound: C[C@@H]1COCCN1C2=NC(=NC(=C2)C3(CC3)S(=O)(=O)C)C4=C5C=CNC5=CC=C4
Method in brief: as §1

[9] = compound: Cc1cc(SCc2sc(-c3ccc(C(F)(F)F)cc3)nc2C)ccc1OCC(=O)O
Method in brief: as §1

dasatinib = compound: Cc1nc(Nc2ncc(C(=O)Nc3c(C)cccc3Cl)s2)cc(N2CCN(CCO)CC2)n1 [dasatinib]
Method in brief: as §1

duvelisib = compound: C[C@H](Nc1ncnc2nc[nH]c12)c1cc2cccc(Cl)c2c(=O)n1-c1ccccc1 [duvelisib]
Method in brief: as §1

Measured: log2 fold change

IRF2 (UniProt P14316)
inactive: [1] 0.039 | crizotinib 0.05 | [2] -0.17 | gandotinib 0.091 | tozasertib 0.042 | doramapimod 0.003 | ispinesib 0.059 | bafetinib -0.036 | [3] 0.127 | nilotinib 0.034 | [4] -0.035 | [5] 0.011 | [6] -0.058 | [7] 0.013 | tipifarnib 0.05 | mubritinib 0.02

ITM2C (UniProt Q9NQX7)
inactive: [1] 0.117 | [8] 0.239 | [2] 0.137 | gandotinib 0.083 | [9] 0.011 | ispinesib 0.051 | bafetinib -0.064 | [3] -0.127 | nilotinib 0.099 | [4] -0.018 | dasatinib 0.024 | [5] 0.127 | [6] 0.09 | [7] 0.038 | tipifarnib 0.039

IFITM3 (UniProt Q01628)
inactive: [1] -0.038 | crizotinib -0.027 | [8] 0.069 | [2] -0.085 | [9] -0.094 | doramapimod 0.038 | ispinesib 0.07 | bafetinib -0.073 | nilotinib 0.07 | [4] -0.2 | dasatinib -0.076 | [5] -0.01 | [6] 0.049 | [7] -0.149 | tipifarnib 0.113 | mubritinib -0.157

ILF3 (UniProt Q12906)
inactive: [1] -0.152 | crizotinib -0.201 | [8] -0.284 | doramapimod 0.026 | bafetinib 0.084 | nilotinib -0.065 | [4] 0.167 | [5] 0.364 | mubritinib -0.074

ITPKA (UniProt P23677)
inactive: [1] -0.037 | crizotinib 0.027 | [8] -0.034 | duvelisib -0.028 | gandotinib -0.381 | tozasertib -0.087 | [9] 0.134 | doramapimod -0.068 | ispinesib -0.212 | bafetinib 0.147 | [3] 0.17 | nilotinib -0.09 | [4] 0 | dasatinib -0.322 | [5] 0.286 | [7] -0.124 | tipifarnib 0.039 | mubritinib 0.034

IRF2BP1 (UniProt Q8IU81)
inactive: [1] -0.004 | [2] -0.051 | duvelisib -0.245 | tozasertib -0.002 | [9] 0.27 | ispinesib 0.046 | bafetinib -0.069 | dasatinib -0.133 | [6] -0.019 | [7] 0.004 | tipifarnib -0.227 | mubritinib -0.091

IGKC (UniProt P01834)
inactive: [1] -0.002 | crizotinib -0.51 | tozasertib 0.469 | doramapimod -0.781 | ispinesib 1.34 | bafetinib 0.68 | nilotinib 0.02 | [4] -0.03 | [5] 0.349 | [7] 0.502 | mubritinib -0.317

IL17RA (UniProt Q96F46)
inactive: [1] -0.159 | tozasertib 0.021 | mubritinib 0.134

IGHA1 (UniProt P01876)
inactive: [1] -0.024 | [8] 0.327 | [2] 0.065 | duvelisib -0.106 | gandotinib -0.265 | tozasertib 0.082 | [9] -0.39 | ispinesib 1.36 | bafetinib 1.09 | [3] -0.261 | nilotinib 0.899 | [4] -0.043 | dasatinib -0.46 | [5] 0.524 | [6] -0.349 | [7] 0.259 | tipifarnib 0.207 | mubritinib -0.298

IGFBP5 (UniProt P24593)
inactive: [1] -0.033 | [8] 0.021 | tozasertib 0.144 | mubritinib -0.024

INTS5 (UniProt Q6P9B9)
inactive: [1] 0.029 | crizotinib -0.013 | [8] 0.058 | [9] 0.008 | doramapimod 0.006 | ispinesib 0.025 | bafetinib -0.035 | nilotinib 0.146 | [4] -0.08 | dasatinib -0.11 | [5] 0.167 | [7] -0.003 | tipifarnib -0.145 | mubritinib 0.23

IGHG1 (UniProt P01857)
inactive: [1] 0.136 | duvelisib -0.156 | [9] 0.033 | bafetinib 0.251 | nilotinib 0 | [4] 0.015 | dasatinib 0.06 | [5] 0.211 | mubritinib -0.246

IFT20 isoform 2 (UniProt Q8IY31)
inactive: [1] 0.088 | ispinesib 0.036 | nilotinib -0.016 | [4] -0.017 | [5] -0.007 | [7] 0.368 | mubritinib 0.309

IMPA2 (UniProt O14732)
inactive: [1] 0.009 | [2] 0.202 | duvelisib 0.066 | gandotinib 0.026 | tozasertib 0.133 | [9] 0.034 | ispinesib 0.054 | bafetinib -0.113 | [3] 0.067 | dasatinib -0.112 | [6] 0.189 | [7] -0.081 | tipifarnib -0.077 | mubritinib 0.017

IP6K1 (UniProt Q92551)
inactive: [1] 0.129 | [8] -0.072 | [2] 0.295 | gandotinib -0.145 | [9] 0.23 | ispinesib -0.437 | bafetinib 0.02 | [3] 0.033 | dasatinib -0.361 | [6] 0.024 | [7] 0.116 | tipifarnib -0.038 | mubritinib 0.137

INIP (UniProt Q9NRY2)
inactive: [1] -0.02 | [8] -0.05 | nilotinib 0.067 | [4] -0.004 | [5] -0.115 | tipifarnib -0.07 | mubritinib 0.024

Two consecutive records already listed, for reference:
IGHG1 (UniProt P01857)
inactive: [1] 0.136 | duvelisib -0.156 | [9] 0.033 | bafetinib 0.251 | nilotinib 0 | [4] 0.015 | dasatinib 0.06 | [5] 0.211 | mubritinib -0.246

IFT20 isoform 2 (UniProt Q8IY31)
inactive: [1] 0.088 | ispinesib 0.036 | nilotinib -0.016 | [4] -0.017 | [5] -0.007 | [7] 0.368 | mubritinib 0.309

More entries

IMP4 (UniProt Q96G21)
inactive: [1] 0.042 | duvelisib 0.038 | gandotinib 0.203 | [9] -0.203 | ispinesib -0.077 | [3] 0.028 | dasatinib -0.415 | [7] 0.047

ILRUN (UniProt Q9H6K1)
active: [5] 0.258
inactive: [1] -0.033 | crizotinib 0.115 | [8] 0.028 | [2] -0.038 | [9] 0.029 | doramapimod 0.005 | ispinesib 0.032 | bafetinib -0.05 | nilotinib -0.01 | [4] -0.086 | dasatinib -0.08 | [6] -0.013 | [7] -0.039 | tipifarnib -0.023 | mubritinib 0.029
